In this test the target is p75NTR (common neurotrophin receptor) on PC12 cells (rat) (UniProt P07174). Description: affinity cross-linking of [125I]NGF on intact PC12 cells (EDC/NHS), SDS-PAGE, autoradiography.

Sequences of proteins named here, by UniProt entry; tags and fusion partners are left off. Residues count along the entry.
UniProt P07174, residues 30-425: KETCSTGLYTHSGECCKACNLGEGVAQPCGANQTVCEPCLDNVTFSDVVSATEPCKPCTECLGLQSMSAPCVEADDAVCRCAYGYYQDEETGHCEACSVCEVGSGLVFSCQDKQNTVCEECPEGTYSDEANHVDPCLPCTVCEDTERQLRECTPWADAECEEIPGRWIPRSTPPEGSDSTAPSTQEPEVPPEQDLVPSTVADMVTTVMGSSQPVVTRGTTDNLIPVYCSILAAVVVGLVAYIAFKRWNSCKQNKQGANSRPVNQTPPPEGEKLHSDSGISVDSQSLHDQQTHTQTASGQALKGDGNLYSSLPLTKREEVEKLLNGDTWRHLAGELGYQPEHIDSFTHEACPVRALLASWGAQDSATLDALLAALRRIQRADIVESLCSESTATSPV
UniProt P01139, residues 122-239: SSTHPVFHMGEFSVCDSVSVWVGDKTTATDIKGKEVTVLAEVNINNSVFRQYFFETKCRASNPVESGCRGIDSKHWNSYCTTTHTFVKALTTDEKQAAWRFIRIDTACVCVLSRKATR

Results are given in words; binding and its absence hold for the method and conditions named. Some entries that bind do so weakly or less than the wild type.

“[125I]NGF (nerve growth factor, radioiodinated) (from UniProt P01139 122-239) (ligand)”: the binding entry is on record as “binds”.

These data come from patent US6417159B1 (Queen's University at Kingston, priority 1996, dated 2002).
